Assay results from PubChem BioAssay AID1671190 (National Center for Advancing Translational Sciences (NCATS), 2021).
Screen size: about 580,000 compounds; about 6,100 (1.1%) were called active. This list was built around the results that the source calls inconclusive (neither active nor inactive); the mix of calls is not that of the screen. Calls follow the shape of the dose curve; as a rule, active = well fitted inhibition curve with a large enough effect; inconclusive = small, poorly fitted or top-dose-only effect, or another doubt; inactive = no such curve, though single readings can be large or run the other way. Potencies beside an inconclusive call are fits to weak or partial responses and may not hold up.

By UniProt entry, the sequences of proteins in these tests, tags left out. Where a name states a change or a piece, a line headed by the entry shows the natural chain unless it says otherwise.
UniProt P18054: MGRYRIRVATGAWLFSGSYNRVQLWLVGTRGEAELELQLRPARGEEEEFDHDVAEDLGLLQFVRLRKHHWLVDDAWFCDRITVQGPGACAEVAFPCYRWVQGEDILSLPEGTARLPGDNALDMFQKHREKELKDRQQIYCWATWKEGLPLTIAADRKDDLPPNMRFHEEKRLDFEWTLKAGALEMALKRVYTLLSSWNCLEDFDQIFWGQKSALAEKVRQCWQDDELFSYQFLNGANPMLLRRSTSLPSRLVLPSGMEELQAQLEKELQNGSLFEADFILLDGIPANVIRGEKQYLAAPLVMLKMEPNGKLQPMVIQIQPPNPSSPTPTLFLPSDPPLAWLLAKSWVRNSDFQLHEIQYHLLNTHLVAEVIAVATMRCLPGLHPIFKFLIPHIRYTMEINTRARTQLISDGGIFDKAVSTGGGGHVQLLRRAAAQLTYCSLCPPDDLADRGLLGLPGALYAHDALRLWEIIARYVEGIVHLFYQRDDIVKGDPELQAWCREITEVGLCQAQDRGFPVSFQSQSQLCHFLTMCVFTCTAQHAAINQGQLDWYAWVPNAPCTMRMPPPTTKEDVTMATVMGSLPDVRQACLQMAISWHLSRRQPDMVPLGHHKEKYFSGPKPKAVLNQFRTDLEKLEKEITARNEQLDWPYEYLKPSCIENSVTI

molecular target: Polyunsaturated fatty acid lipoxygenase ALOX12 (Homo sapiens) (UniProt P18054); assay: Primary qHTS assay for inhibitors of human arachidonate 12S-lipoxygenase (ALOX12): Round 2; conditions: purified 12hLO, xylenol orange hydroperoxide absorbance; activity change, negative = inhibition: at 108 µM (top of the series) unless noted
How it was run: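 Purified human 12hLO at 150 nM in 25 mM Hepes, 0.01% Triton X-100, pH 7.0, preincubated 15 min at room temperature with compound. Reaction started with 40 uM arachidonic acid, 30 min at room temperature. Hydroperoxide measured by Fe-xylenol orange, 573/405 nm absorbance ratio.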
% is scaled to controls: 0 for no effect and ±100 for the full control effect; potency is read from the fitted curve at half-maximal effect.

SMILES	Potency	activity change, negative = inhibition
Cc1ccc(C(C)C)c(OCC#CCN2CCOCC2)c1	inconclusive: 1 µM [inhibitor, full curve]	
Cc1c(C(=O)N2CCOCC2)oc2ccc(S(=O)(=O)N3CCCC3)cc12		inactive: 0%
Cc1cc(C)cc(Nc2nc(C)cc(=O)n2CC(=O)Nc2ccc(Br)cc2)c1	inconclusive: 17.8 µM [inhibitor, partial curve]	
CCc1cc(CC)n(-c2nc3c(c(=O)n(CC(N)=O)c(=O)n3C)n2C)n1		inactive: 24.1%
C#CCn1c2ccccc2c(=O)n1C(C)CBr (configuration not stated)	inconclusive: 44.7 µM [inhibitor, partial curve, poor fit]	
COc1cc(/C=C/c2ccc3cccc(O)c3n2)c(Br)cc1O	inconclusive: 63.1 µM [inhibitor, partial curve, poor fit]	
COC(=O)C1=CN(CC(=O)Nc2cc(Cl)ccc2C)S(=O)(=O)N=C1C		inactive: -2.32%
CCN(CC)C(=O)C1CCCN(C(=O)c2ccc3nc(-c4cccc(OC)c4)oc3c2)C1 (configuration not stated)		inactive: 7.73%
Clc1ccccc1OCCCCN1CCCC1	inconclusive: 0.891 µM [inhibitor, full curve, poor fit]	
COc1ccc(CCN(C)Cc2c(O)ccc3cc(Br)ccc23)cc1OC	active: 17.8 µM	
CCO/C=C/C(O)(CNC(=O)c1ccc(C(C)(C)C)cc1)C(F)(F)F (configuration not stated)		inactive: -7.48%
C/C(=N\Nc1ccccc1)c1cc2ccccc2oc1=O	inconclusive: 6.31 µM [inhibitor, full curve, poor fit]	
COc1ccc(Cc2nnc(SCC(=O)Nc3ccccc3C#N)o2)cc1		inactive: 483%
O=C(NCCc1ccccc1)c1cnn2c(C(F)F)cc(C3CC3)nc12	inconclusive: 50.1 µM [inhibitor, partial curve, poor fit]	
C=CCc1cc(C=O)cc(OC)c1OCc1ccc(Cl)cc1	inconclusive: 35.5 µM [inhibitor, single point]	
CC1CCN(C(=O)C2CCN(CC(C)c3ccccc3)CC2)CC1 (configuration not stated)	inconclusive: 31.6 µM [inhibitor, partial curve]	
Cc1onc(C(=O)NC2CCc3nn(C)c(=O)n3CC2)c1COc1ccccc1 (configuration not stated)		inactive: 52.2%
O=S(=O)(NCCCCNS(=O)(=O)c1c(F)cccc1F)c1ccc2c(c1)OCCO2	inconclusive: 126 µM [inhibitor, partial curve, poor fit]	
CCOc1cc(/C=N/N=C2/NC(=O)C(CC(=O)O)S2)ccc1OS(=O)(=O)c1ccc(C)cc1 (configuration not stated)		inactive: 0.6%
COCCn1c(=S)[nH]c2sc3c(c2c1=O)CCCC3	inconclusive: 70.8 µM [inhibitor, partial curve, poor fit]	
O=C(O)C[C@H]1c2ccccc2S(=O)(=O)N1C1CCCCC1	inconclusive: 79.4 µM [inhibitor, partial curve, poor fit]	
COCCNC(=O)CN(Cc1ccc2c(c1)OCO2)C(=O)CCC(=O)Nc1nccs1		inactive: 0%
COc1ccccc1OCC(=O)Nc1nn2cc(-c3ccccc3)nc2s1	inconclusive: 28.2 µM [inhibitor, partial curve]	

SMILES	Potency	activity change, negative = inhibition
Cc1nn(-c2nc3c(c(=O)n(CC(=O)C(C)(C)C)c(=O)n3C)n2C)c(C)c1C		inactive: 42.4%
COc1ccc(/C=C2/C(=N)N3N=C(CC(=O)N4CCCC4)SC3=NC2=O)cc1OC	inconclusive: 35.5 µM [inhibitor, partial curve, poor fit]	
Cc1ccc(C2NC(=O)N(CC(=O)NCCc3ccc(Cl)cc3)C3=C2C(=O)OC3)cc1 (configuration not stated)	inconclusive: 70.8 µM [inhibitor, single point]	
COc1ccccc1C(=O)Nc1ccc2nc(SCC(=O)N(C)c3ccccc3)sc2c1		inactive: 0%
COc1ccc2c(c1)c(C(C(=O)O)N1CCN(Cc3ccncc3)CC1)cn2CCC(=O)O (configuration not stated)	inconclusive: 14.1 µM [inhibitor, partial curve]	
Cn1cccc1C(=O)NC[C@H]1O[C@@H](CO)[C@@H](O)[C@H]1N1CCOCC1	inconclusive: 12.6 µM [inhibitor, full curve]	
COc1ccccc1N(CC(=O)N1CCN(c2ccccc2)CC1)S(=O)(=O)c1ccc(C)cc1		inactive: -1.61%
Cc1c(Cl)cccc1-c1ccc(CNCCSc2nnnn2-c2ccccc2)o1	inconclusive: 100 µM [inhibitor, partial curve, poor fit]	
Cc1noc(C)c1C(=O)N1CCN(c2ccc(Cl)nn2)C(=O)C1	inconclusive: 35.5 µM [inhibitor, full curve, poor fit]	
CC1CCN(S(=O)(=O)c2cc3cc(Cl)ccc3oc2=O)CC1		inactive: -13.5%
COc1ccc(-c2nc3cnc(N4CCOCC4)nc3n(CCC#N)c2=O)cc1	inconclusive: 31.6 µM [inhibitor, single point]	
CC(=O)N1CCN(CC(=O)Nc2ccc(C)c(F)c2)CC1	inconclusive: 0.562 µM [inhibitor, full curve, poor fit]	
CC(=O)NCCc1nc2cc(NC(=O)c3ccc(F)cc3)ccc2n1C	inconclusive: 2.82 µM [inhibitor, partial curve, poor fit]	
Oc1ccc(O)c(Cc2nc3ccccc3[nH]2)c1	inconclusive: 28.2 µM [inhibitor, partial curve]	
Cc1cccc(OCC2(CNC(=O)C3CCCC3)C[C@@H](O)[C@@H](O)C2)n1 (some centres not stated)	inconclusive: 15.8 µM [inhibitor, full curve, poor fit]	
Cc1ccc(NC(=O)c2ccc(F)cc2)cc1S(=O)(=O)N1CCCCCC1		inactive: -7.26%
COc1ccc(Cl)cc1NC(=O)NCCCl	inconclusive: 35.5 µM [inhibitor, single point]	
CCCNC(=O)C1(C)CCCN(C(=O)c2cccc(Cl)c2)C1 (configuration not stated)		inactive: -0.107%
Cc1sc(NC(=O)CSc2ncn(-c3ccccc3)n2)nc1-c1ccccc1		inactive: 0%
CN(C)Cc1ccc(CNC(=O)/C=C/c2ccsc2)cc1		inactive: -20.9%
CC1Cc2cc(C(=O)Nc3cccc(-c4nnc5n4CCCCC5)c3)ccc2N1S(C)(=O)=O (configuration not stated)	inconclusive: 39.8 µM [inhibitor, partial curve, poor fit]	
CCCCn1cnc2c(SCc3ccccc3Cl)nc(N)nc21	inconclusive: 56.2 µM [inhibitor, partial curve, poor fit]	
CC(=O)Nc1ccc(S(=O)(=O)NNC(=O)CCc2ccccc2)cc1	inconclusive: 50.1 µM [inhibitor, partial curve, poor fit]	

Reprinted at random: 3 entries already listed.
SMILES	Potency	activity change, negative = inhibition
Cc1cccc(OCC2(CNC(=O)C3CCCC3)C[C@@H](O)[C@@H](O)C2)n1 (some centres not stated)	inconclusive: 15.8 µM [inhibitor, full curve, poor fit]	
COc1ccc(Cl)cc1NC(=O)NCCCl	inconclusive: 35.5 µM [inhibitor, single point]	
Cc1noc(C)c1C(=O)N1CCN(c2ccc(Cl)nn2)C(=O)C1	inconclusive: 35.5 µM [inhibitor, full curve, poor fit]	

Next records follow:

SMILES	Potency	activity change, negative = inhibition
CCOC(=O)c1c(NC(=O)C(C)Sc2cccc[n+]2[O-])sc2c1CCN(Cc1ccccc1)C2 (configuration not stated)		inactive: 215%
CCNC(=O)c1cc2c(c(-c3cccc(-c4cccc(C(=O)N(C)C)c4)c3)n1)[C@H](CCO)N(S(=O)C(C)(C)C)C2 (some centres not stated)	inconclusive: 6.31 µM [inhibitor, full curve, poor fit]	
COc1cc(/C=C/C(=O)c2cc3ccccc3o2)ccc1OC(C)C	inconclusive: 112 µM [inhibitor, partial curve, poor fit]	
CC(C)Oc1ccc(CNC(=O)c2ccc(Cn3ccn4nc5c(c4c3=O)CCCC5)cc2)cc1	inconclusive: 31.6 µM [inhibitor, partial curve]	
CC(C)(C)c1ccc(C(=O)N/C(=C\c2ccco2)C(=O)Nc2ccccc2C(=O)O)cc1	active: 31.6 µM	
O=C(NCc1sc2ccccc2c1Cl)[C@H]1CCC[C@H](O)C1	inconclusive: 10 µM [inhibitor, full curve, poor fit]	
Cc1ccc(C(=O)NCC(=O)Nc2ccc(C)c(S(=O)(=O)Nc3ccc(Cl)cc3)c2)s1	inconclusive: 8.91 µM [inhibitor, full curve]	
CCc1nncn1C1CCN(C(=O)c2cc(F)ccc2F)CC1		inactive: 17.1%
CS(=O)(=O)Nc1ccc(C2=NN(C(=O)c3ccco3)C(c3ccc(F)cc3)C2)cc1 (configuration not stated)		inactive: -15.9%
CN(C)c1cccc(C(=O)N2CCC(OCCOc3ccc(F)cc3)CC2)c1		inactive: 62.9%
C=CCc1c(O)ccc2oc(-c3ccccc3)cc(=O)c12	inconclusive: 56.2 µM [inhibitor, partial curve, poor fit]	
COc1cccc(C(=O)NN2CC(O)=C(c3nc(-c4ccc(Cl)cc4)cs3)C2=N)c1	inconclusive: 25.1 µM [inhibitor, partial curve, poor fit]	
COCOc1cccc(CN2CCC(C)(Oc3ccc(SC)cc3)C2)c1 (configuration not stated)	inconclusive: 50.1 µM [inhibitor, partial curve, poor fit]	
O=c1[nH]nc(SCCS(=O)(=O)c2ccc(F)cc2)n1-c1ccccc1C(F)(F)F	inconclusive: 112 µM [inhibitor, single point]	
CCOc1ccc2[nH]c(=O)c(CN(Cc3ccco3)C(=O)c3ccc(Br)cc3)cc2c1	inconclusive: 79.4 µM [inhibitor, single point]	
CCc1ccc(N2CC(C(=O)OCC(=O)Nc3cc(C)on3)CC2=O)cc1 (configuration not stated)	inconclusive: 100 µM [inhibitor, partial curve, poor fit]	
CCCc1cc(C(=O)OCC(=O)c2ccc3c(c2)OCCO3)sc1C		inactive: -3.83%
Cc1nc(Cn2nc(C3CCCNC3)n(-c3ccccc3)c2=O)cs1 (configuration not stated)	inconclusive: 15.8 µM [inhibitor, full curve, poor fit]	
COc1ccc2c(C)c(CCC(=O)NCCCN3CCOCC3)c(=O)oc2c1		inactive: -1.61%
COc1cccc(C2=C(C(C)=O)Sc3nnc(C)n3N2C(C)=O)c1	inconclusive: 35.5 µM [inhibitor, partial curve, poor fit]	
C/C(N)=C(/C#N)C(=O)CSc1ncnc2ccccc12	inconclusive: 70.8 µM [inhibitor, partial curve, poor fit]	
